Some results were stated once for a whole list of compounds, not compound by compound.
Tested on: HT29 cell line
Experiment: Invasion assay, HT29 (dose/response)
Format: cell-based, human
Conditions: treated 48 h
Method: [The procedure below names another cell line; the source lists this cell line under the same test.] For invasion assays, cells were treated with Hakin-1 or DMSO as vehicle for 48 h using 1% FBS during the last 24 hours. 3×10^5 MDCK, MDCK-Hakai or LoVo cells were seeded in a cell invasion chamber (Cell invasion assay kit, Chemicon International) containing medium with 2% FBS. After 72 hours for MDCK and MDCK-Hakai Invasive and 16 h for LoVo cells, invasive cells invaded that reach the lower chamber containing 30% FBS were fixed and stained with crystal violet (Sigma Aldrich, St Louis, Mo.) following the manufacturer's specifications. For migration assays, HT29 cells were cultured with Hakin-1 or DMSO as vehicle for 48 h, using medium without serum the last 24 h. In the cell migration chamber were seeded 3×10^5 HT29 cells (Cell migration kit, Millipore, Bedford, Mass.) containing medium without serum. After 16 h, migrated cells in the lower chamber containing serum with 30% FBS were stained with crystal violet and counted following the manufacturer's specifications. For both invasion and migration assays cells were counted in five fields photographed with an Olympus microscope using a 20× objective, experiments were performed in triplicates for each condition and the assays were repeated at least three times. Results are expressed as mean±SD.

Structure (SMILES)	concentration giving significant decrease in the invasion assay
O=C(O)c1ccc(-n2nnnc2SC(c2ccccc2)c2ccc(Cl)cc2)cc1 (centres unmarked) [Compound K1]	1 to 10 µM
O=C(O)c1ccc(-n2nnnc2SCC(=O)c2ccc([N+](=O)[O-])cc2)cc1 [Hakin-1, 4-(5-[2-(4-nitrophenyl)-2-oxoethyl]thiol-1H-tetrazol-1-yl)benzoic acid]	1 to 10 µM

Reference: patent publication US20230181535A1, “UBIQUITIN-LIGASE INHIBITORS FOR THE TREATMENT OF CANCER” (FUNDACIÓN PROFESOR NOVOA SANTOS, priority 2020, published 2023)
